Here are results for 1 molecule from patent publication US20070154901A1 (ANAPHORE, published 2007).

The chains behind the UniProt entries cited, without tags or fusion partners. Residues count along the entry.
UniProt P00747, residues 377-454: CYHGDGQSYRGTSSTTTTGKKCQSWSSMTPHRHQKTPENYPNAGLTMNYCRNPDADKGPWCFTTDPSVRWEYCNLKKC

The target in this assay is plasminogen kringle 4 (UniProt P00747). Nature of the assay: binding analysis, method not described, data not shown.

No constants are given. Whether binding was seen depends on the method and setting. Some results given as binding are weak or reduced against the parent protein; the word gives no strength.

B1: recombinant full length tetranectin (TN123) (other)
chain: GEPPTQKPKKIVNAKKDVVNTKMFEELKSRLDTLAQEVALLKEQQALQTVCLKGTKVHMKCFLAFTQTKTFHEASEDCISRGGTLSTPQTGSENDALYEYLRQSVGNEAEIWLGLNDMAAEGTWVDMTGARIAYKNWETEITAQPDGGKTENCAVLSGAANGKWFDKRCRDQLPYICQFGIV
notes: Found as a trimer in solution; also called rTN123
With B1, the binding entry is reported as “binds”.
